# Paper PMC8379748
# Protein sequences, listed by entry. Tags and fused reporters are not part of them. Lines headed by an entry give the natural chain unless they say otherwise; changes in a name come on top.
# UniProt Q9Y572: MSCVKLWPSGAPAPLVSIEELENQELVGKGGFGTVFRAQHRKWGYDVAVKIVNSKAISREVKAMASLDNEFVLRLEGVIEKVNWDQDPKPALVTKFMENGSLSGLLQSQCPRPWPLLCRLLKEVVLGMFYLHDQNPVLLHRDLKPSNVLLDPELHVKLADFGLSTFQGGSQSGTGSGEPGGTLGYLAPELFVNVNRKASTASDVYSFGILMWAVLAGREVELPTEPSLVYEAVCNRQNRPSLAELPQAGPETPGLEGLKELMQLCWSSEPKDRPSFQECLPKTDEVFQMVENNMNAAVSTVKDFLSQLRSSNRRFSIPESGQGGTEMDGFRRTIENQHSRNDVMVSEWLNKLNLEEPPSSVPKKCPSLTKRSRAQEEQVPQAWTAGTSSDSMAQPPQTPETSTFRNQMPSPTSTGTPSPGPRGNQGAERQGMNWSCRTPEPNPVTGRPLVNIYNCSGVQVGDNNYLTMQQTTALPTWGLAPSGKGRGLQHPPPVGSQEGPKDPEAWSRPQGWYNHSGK
# How the values were obtained:
# [1] = target: TAP-RIPK3 (K50A), enzymatically inactive (KD) (human) (UniProt Q9Y572); assay: affinity purification with mass spectrometry; TAP-mock, TAP-RIPK3 WT or TAP-RIPK3-KD transiently transfected into 293 T cells, 18 h; lysate purified in two steps (streptavidin and calmodulin); SDS-PAGE bands analysed by LC-MS/MS; proteins found with TAP-mock and TAP-RIPK3-KD subtracted
# [2] = target: TAP-RIPK3 wild-type (WT) fusion protein (human) (UniProt Q9Y572); assay: as above
substance,measurement,setting,value
"Tripartite motif containing 28 (TRIM28), endogenous in 293 T cells (from UniProt Q13263-1 1-835)",binding,[1],no binding
same,binding,[2],binds

# Results are given in words; binding and its absence hold for the method and conditions named. In cells and extracts the contact can be indirect. Here binding means that the protein was enriched with, or labelled near, the bait; the list need not be complete. For some assays here: A no says only that the protein was not detected with the bait.
